Assay results from publication PMC4705382.
No constants are given. Whether binding was seen depends on the method and setting. Binding seen in cells or lysates may run through a third protein. A result given as binding can be weak or reduced; the word gives no strength.

What was measured:
[1] = biological target: TRAK1 (rat brain) (rat (endogenous in brain)); assay: co-IP; native co-IP from brain homogenate of transgenic rats expressing human DISC1; lysis buffer with 1.5% Triton X-100, 1% BSA, antibodies overnight, protein A beads
[2] = biological target: Miro (rat brain) (rat (endogenous in brain)); assay: as above

binding [1]: binds | binding [2]: binds
B1: full-length, non-mutant, human DISC1 (transgenic rat brain) (protein, UniProt Q9NRI5 1-854)
chain: MPGGGPQGAPAAAGGGGVSHRAGSRDCLPPAACFRRRRLARRPGYMRSSTGPGIGFLSPAVGTLFRFPGGVSGEESHHSESRARQCGLDSRGLLVRSPVSKSAAAPTVTSVRGTSAHFGIQLRGGTRLPDRLSWPCGPGSAGWQQEFAAMDSSETLDASWEAACSDGARRVRAAGSLPSAELSSNSCSPGCGPEVPPTPPGSHSAFTSSFSFIRLSLGSAGERGEAEGCPPSREAESHCQSPQEMGAKAASLDGPHEDPRCLSRPFSLLATRVSADLAQAARNSSRPERDMHSLPDMDPGSSSSLDPSLAGCGGDGSSGSGDAHSWDTLLRKWEPVLRDCLLRNRRQMEVISLRLKLQKLQEDAVENDDYDKAETLQQRLEDLEQEKISLHFQLPSRQPALSSFLGHLAAQVQAALRRGATQQASGDDTHTPLRMEPRLLEPTAQDSLHVSITRRDWLLQEKQQLQKEIEALQARMFVLEAKDQQLRREIEEQEQQLQWQGCDLTPLVGQLSLGQLQEVSKALQDTLASAGQIPFHAEPPETIRSLQERIKSLNLSLKEITTKVCMSEKFCSTLRKKVNDIETQLPALLEAKMHAISGNHFWTAKDLTEEIRSLTSEREGLEGLLSKLLVLSSRNVKKLGSVKEDYNRLRREVEHQETAYETSVKENTMKYMETLKNKLCSCKCPLLGKVWEADLEACRLLIQSLQLQEARGSLSVEDERQMDDLEGAAPPIPPRLHSEDKRKTPLKVLEEWKTHLIPSLHCAGGEQKEESYILSAELGEKCEDIGKKLLYLEDQLHTAIHSHDEDLIQSLRRELQMVKETLQAMILQLQPAKEAGEREAAASCMTAGVHEAQA
